The record followed here is patent US20240182562A1.

The chains behind the UniProt entries cited, without tags or fusion partners. Where a name states a change or a piece, a line headed by the entry shows the natural chain unless it says otherwise. A line that says so, or that is headed by a name, gives the form on record, which may keep a tag or linker.
Human CLDN18.2 (P56856, form named): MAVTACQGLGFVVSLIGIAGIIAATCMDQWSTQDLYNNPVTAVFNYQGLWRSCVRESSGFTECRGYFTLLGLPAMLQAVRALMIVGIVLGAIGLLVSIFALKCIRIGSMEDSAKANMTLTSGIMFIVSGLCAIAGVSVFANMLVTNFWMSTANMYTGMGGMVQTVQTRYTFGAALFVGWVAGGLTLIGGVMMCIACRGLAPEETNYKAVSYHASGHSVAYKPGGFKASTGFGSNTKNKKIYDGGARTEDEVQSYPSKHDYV

The target in the assay is Human CLDN18.2 (human) (UniProt P56856). The assay is described as follows: FACS on SP2/0-hCLDN18.2 cells (FIG. 12).

No constants are given. Whether binding was seen depends on the method and setting. Some entries that bind do so weakly or less than the wild type.

B1: 5E6-scFv (CLDN18.2 single-chain antibody) (scFv)
scFv: QVQLVQSGAEVKKPGASVKVSCKASGYTFTNYVMNWVRQAPGQRLEWMGYINPYNDGTKYNERFKGRVTITRDTSASTAYMELSSLRSEDTAVYYCARLYRGNAMDYWGQGTLVTVSSASTGGGGSGGGGSGGGGSDIVMTQSPDSLAVSLGERATINCKSSQSLLASGNQKNYLTWYQQKPGQPPKLLIYWASTRESGVPDRFSGSGSGTDFTLTISSLQAEDVAVYYCQNVYIYPFTFGQGTKLEIKR
B1: the binding result is reported as “binds”.
